Data taken from PMC9756784 (Journal of Mass Spectrometry and Advances in the Clinical …, 2022).

Conditions: human

Question: With `O=C(O)c1cn(C2CC2)c2cc(N3CCNCC3)c(F)cc2c1=O` [Ciprofloxacin, ciprofloxacin] as the compound, how does the “Length of time for which stability is assumed” value read?
Answer: Its value is 24h RT.
